Where a name gives a salt, the structure may show the parent alone.
Settings: human, 4 h, 10 mg/mL, pH 7.4

With `CCN(CC)CC(=O)Nc1c(C)cccc1C` [lidocaine hydrochloride] as the molecule, how does the “factor of enhancement of transdermal delivery as compared with the control” value read?
Its value is “approximately 4”.
